We go through 17 molecules from PubChem BioAssay AID445 (National Center for Advancing Translational Sciences (NCATS), 2006).

The list shows a part of the results. These are further read-outs of the screen, such as a control signal, another cell line or another target. No call is given for them. Compounds called inactive in the main read-out are mostly missing here. Potencies come from curve fits of mixed quality, noted in brackets.

The experiment can be described thus: IkB Signaling. To be noted: ABC-DLBCL IkBa-CBG/CBR dual luciferase ratio (green luciferase fused to IkBa over red control in OCI-Ly3 lymphoma cells), 4 h; measured here: control luc red channel unless noted. The method, boiled down: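 Curves were fitted separately to fusion (green), unfused (red) and ratio luminescence, then classed by r2, magnitude and activity. Cells: OCI-Ly3, 4 h compound plus doxycycline at 37C; 10 uM MG-132 defined full response.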
With `Cc1ccc2nc(-c3ccc(NC(=O)COc4ccccc4C(C)(C)C)cc3)sc2c1`, the AC50 is 3.98 µM [rising, single point].
The figure for `COc1ccc2cc(CN(C(=O)Nc3ccccc3OC)C3CCCC3)c(=O)[nH]c2c1` is 6.31 µM [falling, partial curve].
As for `CC(=O)NC(C)c1nc2ccccc2n1Cc1ccccc1Cl` (configuration not stated), the figure is 15.8 µM [falling, partial curve].
As for `CCOC(=O)N1CCN(c2ncc3c(n2)CC(c2ccc(Cl)cc2)CC3=O)CC1` (configuration not stated), the figure is 20 µM [falling, single point]; as for `Cc1ccc(C)c(NC(=O)C2CCCN2S(=O)(=O)c2ccc3c(c2)n(C)c(=O)c(=O)n3C)c1` (configuration not stated), 25.1 µM [falling, partial curve]; as for `Cc1ccc(-c2noc(CN(C(=O)CCCCCN3C(=O)c4ccccc4C3=O)C(C)C)n2)cc1`, 15.8 µM [falling, partial curve].
`CCOC(=O)CCCCN(Cc1ccccc1F)S(=O)(=O)c1ccc(F)c(C(=O)Nc2cc(Cl)cc(Cl)c2)c1`: the AC50 is 39.8 µM [falling, single point].
As for `COc1cc(-c2noc(-c3ccc(NC4CCCC4)c([N+](=O)[O-])c3)n2)cc(OC)c1OC`, the figure is 3.98 µM [falling, partial curve].
As for `O=C(NCc1ccc(F)cc1)c1nnc(Cc2cccc(F)c2)o1`, the figure is 31.6 µM [falling, single point].
Turning to `CC(C)c1ccc(NC(=O)c2cnc3sc(N4CCCC4)nn3c2=O)cc1`, the AC50 was 3.16 µM [falling, full curve].
The figure for `COCCOC(=O)c1c(C)oc2ccc(OC(=O)c3ccc4c(c3)OCO4)cc12` is 15.8 µM [falling, partial curve]; for `CCOC(=O)c1ccc(NC(=O)CC2C(=O)N(c3cccc(C)c3)C(=O)N2CCOC)cc1` (configuration not stated) it is 31.6 µM [falling, partial curve].
As for `COc1cc(NC(=O)CSc2nc3ccccc3c(=O)n2C)ccc1NC(=O)c1ccco1`, the AC50 was 10 µM [falling, partial curve].
For the molecule `Cc1ccc(OCC(=O)Nc2nnc(SCc3cc(=O)n4cccc(C)c4n3)s2)cc1`, the AC50 is 2.51 µM [falling, full curve, poor fit].
The figure for `Cc1cc(C(=O)CSc2nnc(-c3cccs3)o2)c(C)n1-c1ccccc1` is 7.94 µM [falling, partial curve]; for `O=C(Cn1c(=O)n(Cc2ccccc2)c(=O)c2sc3ccccc3c21)Nc1ccc(F)cc1` it is 12.6 µM [falling, partial curve]; for `COc1ccc(C(C(O)C(=O)c2c[nH]c3ccccc23)N2CCN(c3ccc(OC)cc3)CC2)cc1` (configuration not stated) it is 15.8 µM [falling, partial curve].
